The source of these data is PMC10020564, “Distinct inter-domain interactions of dimeric versus monomeric α-catenin link cell junctions to filaments” (Communications Biology, 2023).

Results are given in words; binding and its absence hold for the method and conditions named.

Assay [1] addresses full-length human α-catenin (residues 1–906) (human) (UniProt P35221). Description: condition: only the separately pooled monomer peak of the size exclusion run; SEC-MALS; separately pooled monomer peak of a size exclusion run; Superdex S200 10/300 GL, 20 mM Tris-HCl pH 8, 150 mM NaCl, 0.2 mM TCEP, 0.5 ml/min; both purified.
Assay [2] concerns the target human α-catenin (residues 22–906) (human) (UniProt P35221). The assay is described as above.

B1: full-length human α-catenin (residues 1–906) (natural protein, UniProt P35221 1-906, looked up)
chain: MTAVHAGNINFKWDPKSLEIRTLAVERLLEPLVTQVTTLVNTNSKGPSNKKRGRSKKAHVLAASVEQATENFLEKGDKIAKESQFLKEELVAAVEDVRKQGDLMKAAAGEFADDPCSSVKRGNMVRAARALLSAVTRLLILADMADVYKLLVQLKVVEDGILKLRNAGNEQDLGIQYKALKPEVDKLNIMAAKRQQELKDVGHRDQMAAARGILQKNVPILYTASQACLQHPDVAAYKANRDLIYKQLQQAVTGISNAAQATASDDASQHQGGGGGELAYALNNFDKQIIVDPLSFSEERFRPSLEERLESIISGAALMADSSCTRDDRRERIVAECNAVRQALQDLLSEYMGNAGRKERSDALNSAIDKMTKKTRDLRRQLRKAVMDHVSDSFLETNVPLLVLIEAAKNGNEKEVKEYAQVFREHANKLIEVANLACSISNNEEGVKLVRMSASQLEALCPQVINAALALAAKPQSKLAQENMDLFKEQWEKQVRVLTDAVDDITSIDDFLAVSENHILEDVNKCVIALQEKDVDGLDRTAGAIRGRAARVIHVVTSEMDNYEPGVYTEKVLEATKLLSNTVMPRFTEQVEAAVEALSSDPAQPMDENEFIDASRLVYDGIRDIRKAVLMIRTPEELDDSDFETEDFDVRSRTSVQTEDDQLIAGQSARAIMAQLPQEQKAKIAEQVASFQEEKSKLDAEVSKWDDSGNDIIVLAKQMCMIMMEMTDFTRGKGPLKNTSDVISAAKKIAEAGSRMDKLGRTIADHCPDSACKQDLLAYLQRIALYCHQLNICSKVKAEVQNLGGELVVSGVDSAMSLIQAAKNLMNAVVQTVKASYVASTKYQKSQGMASLNLPAVSWKMKAPEKKPLVKREKQDETQTKIKRASQKKHVNPVQALSEFKAMDSI
notes: Cloned into pGEX-6P-1; residues of the PreScission site may remain at the N-terminus after cleavage; The same protein elutes as a monomer peak and a dimer peak, which were pooled separately; also called human monomeric α-catenin; human dimeric α-catenin; source: E. coli BL21(DE3), purified (GST Sepharose, PreScission cleavage, Superdex S200; monomer and dimer peaks pooled separately); not shown: …
With B1, the binding entry in assay [1] was “no binding”.

B2: human α-catenin (residues 22–906) (domain or fragment, UniProt P35221 22-906, looked up)
chain: TLAVERLLEPLVTQVTTLVNTNSKGPSNKKRGRSKKAHVLAASVEQATENFLEKGDKIAKESQFLKEELVAAVEDVRKQGDLMKAAAGEFADDPCSSVKRGNMVRAARALLSAVTRLLILADMADVYKLLVQLKVVEDGILKLRNAGNEQDLGIQYKALKPEVDKLNIMAAKRQQELKDVGHRDQMAAARGILQKNVPILYTASQACLQHPDVAAYKANRDLIYKQLQQAVTGISNAAQATASDDASQHQGGGGGELAYALNNFDKQIIVDPLSFSEERFRPSLEERLESIISGAALMADSSCTRDDRRERIVAECNAVRQALQDLLSEYMGNAGRKERSDALNSAIDKMTKKTRDLRRQLRKAVMDHVSDSFLETNVPLLVLIEAAKNGNEKEVKEYAQVFREHANKLIEVANLACSISNNEEGVKLVRMSASQLEALCPQVINAALALAAKPQSKLAQENMDLFKEQWEKQVRVLTDAVDDITSIDDFLAVSENHILEDVNKCVIALQEKDVDGLDRTAGAIRGRAARVIHVVTSEMDNYEPGVYTEKVLEATKLLSNTVMPRFTEQVEAAVEALSSDPAQPMDENEFIDASRLVYDGIRDIRKAVLMIRTPEELDDSDFETEDFDVRSRTSVQTEDDQLIAGQSARAIMAQLPQEQKAKIAEQVASFQEEKSKLDAEVSKWDDSGNDIIVLAKQMCMIMMEMTDFTRGKGPLKNTSDVISAAKKIAEAGSRMDKLGRTIADHCPDSACKQDLLAYLQRIALYCHQLNICSKVKAEVQNLGGELVVSGVDSAMSLIQAAKNLMNAVVQTVKASYVASTKYQKSQGMASLNLPAVSWKMKAPEKKPLVKREKQDETQTKIKRASQKKHVNPVQALSEFKAMDSI
notes: Modified pET28 vector; By the printed forward primer the residues GPHM would remain before T22 after PreScission cleavage (surmise); The dimer was used for the complex with F-actin; in the map only residues 710–871 are ordered; also called Δ1–21 α-catenin; human dimeric α-catenin Δ1–21; source: E. coli BL21(DE3), purified (HisTrap, PreScission cleavage, reverse HisTrap, Superdex S200); not shown: …
Consider B2, for which the binding result in assay [2] is “no binding”.
